Experimental data published in paper PMC8115694, “Distinct axial and lateral interactions within homologous filaments dictate the signaling specificity and order of the AIM2-ASC inflammasome” (Nature Communications, 2021).
Results are given in words; binding and its absence hold for the method and conditions named.

Molecular target: N73L-AIM2^FL (human) (UniProt O14862)
Assay: negative-stain EM (nsEM); 100 nM AIM2^FL (cleaved by TEVp) with 150 nM linear plasmid dsDNA (~5 kbp); filament formation on dsDNA; both purified

binding: no binding
B1: N73L-AIM2^FL (protein, UniProt O14862 1-343)
chain: MESKYKEILLLTGLDNITDEELDRFKFFLSDEFNIATGKLHTANRIQVATLMIQNAGAVSAVMKTIRIFQKLLYMLLAKRLQEEKEKVDKQYKSVTKPKPLSQAEMSPAASAAIRNDVAKQRAAPKVSPHVKPEQKQMVAQQESIREGFQKRCLPVMVLKAKKPFTFETQEGKQEMFHATVATEKEFFFVKVFNTLLKDKFIPKRIIIIARYYRHSGFLEVNSASRVLDAESDQKVNVPLNIIRKAGETPKINTLQTQPLGTIVNGLFVVQKVTEKKKNILFDLSDNTGKMEVLGVRNEDTMKCKEGDKVRLTFFTLSKNGEKLQLTSGVHSTIKVIKAKKKT
